Measured values from patent US20220348615A1, “PRODUCTION OF BACTERIOCINS” (priority 2021, published 2022).
Some entries share one result that the patent states for a list of compounds. Positions of bridges follow the written chain, without caps; N, C: chain ends. Non-standard residues stand in square brackets, D forms with d. Residues, ends and D or L forms follow the SMILES beside them. *: point of attachment. Ileψ(thiazoline)Cys = CC[C@H](C)[C@H](N)C1=N[C@H](C(=O)*)CS1; dOrn = NCCC[C@@H](N)C(=O)O

Test system: C. glutamicum CR099
Test: Resistance of C. glutamicum CR099 to antimicrobial peptides, endpoint growth in 96-well microtiter plates
Type: cell-based, Corynebacterium glutamicum
Description: Values are mean±standard deviation of n=4-7 independent experiments. (B) Growth of C. glutamicum CR099 in standard batch culture in 2xTY medium with 2% Glc in the presence (+PA-1) or absence (−PA-1) of 2.0 μg/mL pediocin. Values are mean±standard deviation of n=4 independent experiments. Growth rates were calculated during exponential growth phase. (C) Growth inhibition of L. monocytogenes EGDe::pIMK2 by supernatants of C. glutamicum CR099 in 2xTY medium with 2% Glc plus 2 μg/mL pure pediocin (+CR099). Supernatants were collected during the experiment shown in (B) at the indicated time-points. As controls, pediocin was incubated under the same conditions in sterile medium (−CR099). Values are OD600 of the indicator strain L. monocytogenes EGDe in a growth assay at the indicated dilutions of the samples and are mean±standard deviation of n=3 independent experiments. […]
The receptors for bacteriocins of the pediocin family on target organisms are the IIC and IID subunits of a sub-family of mannose-specific phosphotransferase systems (PTS^Man; PMID: 19477899). […] To corroborate this assumption, the resistance of C. glutamicum CR099 against different antimicrobial peptides was determined using an endpoint measurement of growth in 96-well microtiter plates (FIG. 2A).

CC[C@H](C)[C@H](N)C1=N[C@H](C(=O)N[C@@H](CC(C)C)C(=O)N[C@H](CCC(=O)O)C(=O)N[C@H](C(=O)N[C@H]2CCCCNC(=O)[C@H](CC(N)=O)NC(=O)[C@@H](CC(=O)O)NC(=O)[C@H](Cc3cnc[nH]3)NC(=O)[C@@H](Cc3ccccc3)NC(=O)[C@H]([C@@H](C)CC)NC(=O)[C@@H](CCCN)NC2=O)[C@@H](C)CC)CS1 [bacitracin] ({Ileψ(thiazoline)Cys}-L[dE]IK[dOrn]I[dF]H[dD]N; lactam 4-C)
concentration giving complete inhibition of growth: 390 to 781 ng/mL

nisin
concentration giving complete inhibition of growth: 390 to 781 ng/mL
